# Library screening results

Protein sequences, listed by entry. Tags and fused reporters are not part of them.
UniProt E9BF75, entry or part of it: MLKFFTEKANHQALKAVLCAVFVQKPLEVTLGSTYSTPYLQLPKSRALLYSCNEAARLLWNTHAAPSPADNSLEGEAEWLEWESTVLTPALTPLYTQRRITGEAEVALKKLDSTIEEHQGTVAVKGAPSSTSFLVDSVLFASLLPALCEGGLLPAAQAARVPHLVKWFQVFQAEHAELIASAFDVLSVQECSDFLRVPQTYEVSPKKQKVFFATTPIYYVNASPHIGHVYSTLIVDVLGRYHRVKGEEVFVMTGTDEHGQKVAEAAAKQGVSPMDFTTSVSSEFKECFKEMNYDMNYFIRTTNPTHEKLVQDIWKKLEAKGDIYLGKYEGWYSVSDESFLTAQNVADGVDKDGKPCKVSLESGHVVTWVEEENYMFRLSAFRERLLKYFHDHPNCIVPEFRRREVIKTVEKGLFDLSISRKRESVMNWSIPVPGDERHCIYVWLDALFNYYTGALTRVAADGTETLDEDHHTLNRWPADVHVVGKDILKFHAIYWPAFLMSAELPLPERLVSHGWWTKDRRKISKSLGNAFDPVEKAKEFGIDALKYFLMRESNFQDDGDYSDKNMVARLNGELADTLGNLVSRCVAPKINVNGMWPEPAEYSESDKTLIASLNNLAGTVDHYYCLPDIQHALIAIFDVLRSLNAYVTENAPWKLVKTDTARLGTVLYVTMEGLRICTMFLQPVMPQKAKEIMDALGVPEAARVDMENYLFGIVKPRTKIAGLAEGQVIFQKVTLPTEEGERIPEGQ

Source: ChEMBL document CHEMBL3988442, “University of Dundee, Small-Polar-MMV Screening Library” (2021).

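Primary screen of methionyl-tRNA synthetase; the read-out is not stated. Target: Methionyl-tRNA synthetase (putative), Leishmania donovani (UniProt E9BF75). The test concentration is not given. The values are filed as inhibition. Size under these conditions: about 68,000 compounds, about 24 of them at 50% or above in at least one test.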

All values are in %. The controls that fix the scale are not given in the record; negative values are as filed. The compounds are a random part of those screened.

structure: O=S(=O)(c1ccc2c(c1)OCCO2)N1CCc2ccccc2C1
inhibition: 3.394

structure: O=S(=O)(Nc1cnc(N2CCCC2)nc1)c1ccc(OC(F)(F)F)cc1
inhibition: 15.99

structure: COCC(=O)N1CC[C@@H]2O[C@@H](COCC3CCOCC3)CC[C@@H]21
inhibition: 11.52

structure: CC1c2ncc(CNC(=O)C3CC3)n2CCN1Cc1nccs1 (centres undefined)
inhibition: 13.97

structure: Cc1cnc(CN(C)C2CCN(Cc3nnc(C4CC4)o3)C2)o1 (centres undefined)
inhibition: 10.93

structure: COc1cccc(-c2noc(C3CCN(Cc4cn(C)nc4C)C3)n2)c1 (centres undefined)
inhibition: 22.73

structure: O=C(c1cscn1)N1CC[C@]2(C[C@@H](OCCN3CCCC3)CO2)C1
inhibition: 5.923

structure: COC(=O)C1CCN(C(=O)Cn2ccc(-c3ccsc3)n2)CC1
inhibition: 13.84

structure: CC(C)c1ccc(OCn2ccc(C(=O)N3CCCC3)n2)cc1
inhibition: 11.02

structure: COc1ccc2c(c1)C(=O)N(C)C1(CCN(CC=C(C)C)CC1)N2
inhibition: 1.571

structure: CN(C)C(=O)COCC1CN(Cc2ccoc2)Cc2ncn(C)c21 (centres undefined)
inhibition: 17.77

structure: COc1ncccc1CN1CCc2[nH]nc(C(=O)N3CCCC3C)c2C1 (centres undefined)
inhibition: 5.556

structure: CC(C)Oc1ccccc1C1CC(=O)Nc2nc(N3CCOCC3)sc21 (centres undefined)
inhibition: 14.73

structure: CSc1ccc(CNC(=O)C2CC(=O)N(C(C)(C)C)C2)cc1 (centres undefined)
inhibition: -2.667

structure: COCc1cn([C@@H]2c3ccccc3C3(CCNCC3)[C@H]2O)nn1
inhibition: 16.81

structure: Cn1c(SCc2noc(C(C)(C)C)n2)nnc1C1CCS(=O)(=O)C1 (centres undefined)
inhibition: 8.707

structure: Cc1nn(C)c2cnn(CC(=O)NCCc3ccccc3)c12
inhibition: 17.01

structure: CCC(C(=O)NC1CCCCC1)n1ccc2ncccc2c1=O (centres undefined)
inhibition: 5.672

structure: Cc1nn(C)c2c(=O)n(Cc3ccc(C#N)cc3)nnc12
inhibition: 24.37

structure: CCCc1nc(CN2CCN(CC(O)c3ccccc3)CC2)no1 (centres undefined)
inhibition: 22.22

structure: c1cc(CN2CCC(c3nnc4n3CCCCC4)CC2)c2c(c1)OCO2
inhibition: 3.361

structure: Cn1ccc(CN2CCCC23CCNCC3)n1
inhibition: 12.89

structure: O=C(c1ccoc1)N1CCO[C@]2(CCC[C@@H]2COCc2ccncc2)C1
inhibition: 6.667

structure: Cc1ccc(C)c(SCC(=O)Nc2cccc(C(=O)N(C)C)n2)c1
inhibition: 4.178

structure: Cc1nc(C)n(CC2CCCN(Cc3cccnc3)C2)n1 (centres undefined)
inhibition: 24.44

structure: CN(C)c1cc(C2CCCN(S(=O)(=O)C3CCCC3)C2)ccn1 (centres undefined)
inhibition: 12.26

structure: COC(=O)C(CO)NC(=O)c1cn(Cc2ccccc2F)nn1 (centres undefined)
inhibition: 10.21

structure: Cc1ocnc1C(=O)N(C)[C@@H]1CC[C@@H](Oc2ccccc2)[C@@H]1O
inhibition: 6.604

structure: COCC(=O)NC1(c2cccc(C(F)(F)F)c2)CCC1
inhibition: 12.42

structure: CC(=O)N[C@H]1CCN(C(=O)c2cc(Cn3cnc4ccccc43)[nH]n2)C1
inhibition: 26.89

structure: CN(C)c1ccc(-c2cc(C(=O)O)cc(S(=O)(=O)NC3CC3)c2)cc1
inhibition: 2.793

structure: CC1CCN(C(=O)C(C)Oc2ccc3c(c2)OCO3)CC1 (centres undefined)
inhibition: 17.62

structure: CO[C@H]1CNC[C@@H]1NC(=O)CCc1nc(-c2ccccc2)no1
inhibition: 14.03

structure: CCc1cnc(N)nc1NCc1ccc(OC)c(OC)c1
inhibition: 7.317

structure: Cc1ncc(CN(C)CC2CCCN2c2cccnn2)s1 (centres undefined)
inhibition: 3.472

structure: O=C(O)c1cc(S(=O)(=O)Nc2cccc(F)c2F)cc2c1OCCO2
inhibition: 10.89

structure: Fc1ccccc1CN1CCCC2(CCN(c3ncccn3)C2)C1 (centres undefined)
inhibition: 8.591

structure: CC(C)N(CCS(C)(=O)=O)Cc1csc(Cc2ccc(Cl)cc2)n1
inhibition: 7.829

structure: Cc1ccc(S(=O)(=O)NC(=O)c2cc(S(C)(=O)=O)ccc2C)s1
inhibition: 4.83

structure: Cc1nc(CN2CCCN(CC(=O)N(C)CCC#N)CC2)no1
inhibition: 4.348

structure: Cc1oc(-c2ccco2)nc1CC(=O)N1CCC(C(O)C(F)(F)F)CC1 (centres undefined)
inhibition: 12.5

structure: CC(C)Cn1cc(C(=O)NC2CCS(=O)(=O)C2)c2ccccc2c1=O (centres undefined)
inhibition: 12.9

structure: CC(C)CN1CCC2(CCN(Cc3ccsc3)CC2)C1=O
inhibition: 18.52

structure: c1cc2c(cc1CN1CCC(Cc3noc(C4CC4)n3)CC1)OCCO2
inhibition: 16.91

structure: CCCNC(=O)CCNC(=O)c1sc2ccc(F)cc2c1C
inhibition: 18.78

structure: O=C(NCCNC(=O)c1scnc1Cl)c1cccs1
inhibition: 18.79

structure: Cn1nc(C2CCN(C(=O)CN3CCCCC3)CC2)c2cccnc21
inhibition: 13.54

structure: O=S(=O)(c1ccc(C(F)(F)F)cc1)N1CCC(OCc2ccccn2)C1 (centres undefined)
inhibition: 21.48

structure: COCCCN(C)Cc1nc2c(cnn2C)c(=O)[nH]1
inhibition: 8.661

structure: Cc1nccn1CC1CCCN1S(=O)(=O)Cc1ccc(F)cc1 (centres undefined)
inhibition: 7.229

structure: O=C(NCCN1CCCC1)c1nc2c(o1)CN(C(=O)c1cccnc1)C2
inhibition: 14.07

structure: O=C(NC[C@H]1OC[C@@H]2CN(Cc3ccco3)CC[C@@H]21)c1cccnc1
inhibition: 12.88

structure: Cc1ncsc1CN1Cc2cn(C)nc2C(COCC2CC2)C1 (centres undefined)
inhibition: -0.9524

Once more, the final 6:

structure,inhibition
O=S(=O)(c1ccc(C(F)(F)F)cc1)N1CCC(OCc2ccccn2)C1 (centres undefined),21.48
COCCCN(C)Cc1nc2c(cnn2C)c(=O)[nH]1,8.661
Cc1nccn1CC1CCCN1S(=O)(=O)Cc1ccc(F)cc1 (centres undefined),7.229
O=C(NCCN1CCCC1)c1nc2c(o1)CN(C(=O)c1cccnc1)C2,14.07
O=C(NC[C@H]1OC[C@@H]2CN(Cc3ccco3)CC[C@@H]21)c1cccnc1,12.88
Cc1ncsc1CN1Cc2cn(C)nc2C(COCC2CC2)C1 (centres undefined),-0.9524